Results published in publication PMC4311431.
These are yes or no findings as the source states them, for the method shown. Some entries that bind do so weakly or less than the wild type. Where a sequence is shown, tags or fusion partners need not be part of it.

T1: 6His-tagged SUMO-SA2
T1 sequence: AAVVLLLWEE


What was measured:
[1] = molecular target: T1, 6His-tagged SUMO-SA2; test: SEC; purified and desalted SUMO-SA2 before cleavage; Superdex Peptide 10/300 GL, 0.7 ml/min, phosphate buffered saline; peaks checked by SDS-PAGE; both purified
[2] = molecular target: T1, 6His-tagged SUMO-SA2; test: SEC; SUMO-SA2 after cleavage with SUMO protease; void-volume peak collected and re-injected; Superdex Peptide 10/300 GL, 0.7 ml/min, phosphate buffered saline pH 7.4 (at pH 11.5 the major part of the aggregates dissolved); both purified

| binding [1] | binding [2] | Binder |
| --- | --- | --- |
| binds |  | AAVVLLLWEE [6His-tagged SUMO-SA2] |
|  | binds | AAVVLLLWEE [SA2 peptide] |
